# The list shows only some results of the screen, not a fair sample: it gathers tests that were run many times, whatever their T/C, doses with no T/C, and many T/C values between a quarter and a half above the control. Further doses and runs are listed elsewhere. T/C: endpoint of the treated group in % of that of the vehicle group. Some entries give survivors of the animals treated and no T/C: the source files T/C as zero there, which appears to mark a toxic dose or a test without result, not a measured value. Some survivor counts are full or nearly so, which does not show that the dose was tolerated: survival well below the control is almost never listed, so the zero probably covers shortened survival too. Survivors were counted at the toxicity check, usually on the fifth day, unless a day is given; later deaths do not show. Schedules are NCI's codes, taken here to give the interval after Q, in days (D) or hours (H), and the number of doses after X. Some doses were run more than once; their values stand side by side, smallest first. Some structures stand for samples that the source files as different forms (salt, stereo form or complex); doses refer to the form tested. Where survival is the endpoint, the PubChem record calls one and a half times the control and up active, and a quarter to a half above the control has no call in these data; cut-offs in other NCI protocols can differ. Some T/C values are followed by the survivors on the day toxicity was checked, most often the fifth; where none is given, no animal had died by that day. Counts like (3×) count equal records among those shown. Numbered stars: 1 amine (or outer) side, 2 acyl side, 3 side chain; on linkers, the order of the positions; unused ones are H or OH. Bridge positions count the residues as written; N and C are the ends. Square brackets hold non-standard residues; d marks the D form. Peptide text beside a SMILES is read from it. I, II: the chains in the order shown. Actinocin(1to9) = Cc1c2oc3c(C)ccc(C(=O)[*:2])c3nc-2c(C(=O)[*:1])c(N)c1=O; NMeV = CN[CH](C(=O)O)C(C)C; Sar = CNCC(=O)O
# Tested on: BDF1 mice, B16 melanoma ip, median survival T/C
# Test: NCI In Vivo Anticancer Drug Screen. Data for tumor model B16 Melanoma (intraperitoneal) in B6D2F1 (BDF1) mice
# Conditions: T/C endpoint: median survival time, higher T/C = longer survival
# Summary of the method: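 Vehicle-treated animals serve as the reference (C); treated animals (T) are scored for survival or tumor size after tumor transplantation.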
# [1] = dose: 25.0 mg/kg/injection, schedule: Q01DX009 (ip), vehicle: saline
# [2] = dose: 100.0 mg/kg/injection, schedule: Q01DX009 (ip), vehicle: saline
# [3] = dose: 400.0 mg/kg/injection, schedule: Q01DX009 (ip), vehicle: Klucel (hydroxypropylcellulose) (HPC)
# [4] = dose: 25.0 mg/kg/injection, schedule: Q01DX009 (ip), vehicle: saline with Tween-80
# [5] = dose: 12.5 mg/kg/injection, schedule: Q01DX009 (ip), vehicle: saline with Tween-80
# [6] = dose: 80.0 micrograms/kg/injection, schedule: Q01DX009 (ip), vehicle: saline
# [7] = dose: 160.0 micrograms/kg/injection, schedule: Q01DX009 (ip), vehicle: saline
# [8] = dose: 200.0 mg/kg/injection, schedule: Q01DX009 (ip), vehicle: Klucel (hydroxypropylcellulose) (HPC)
# [9] = dose: 50.0 mg/kg/injection, schedule: Q01DX009 (ip), vehicle: saline
# [10] = dose: 50.0 mg/kg/injection, schedule: Q01DX009 (ip), vehicle: Klucel (hydroxypropylcellulose) (HPC)
# [11] = dose: 100.0 mg/kg/injection, schedule: Q01DX009 (ip), vehicle: Klucel (hydroxypropylcellulose) (HPC)
structure (smiles),measurement,setting,value
C[N+](C)([O-])CCC=C1c2ccccc2CCc2ccccc21,survivor count,[1],10 of 10
same,survivor count,[2],8 of 10
O=C1/C(=C/c2ccc([N+](=O)[O-])cc2)CCc2ccccc21,survivor count,"dose: 200.0 mg/kg/injection, schedule: Q01DX009 (ip), vehicle: water",10 of 10
Nc1nc2[nH]c(=O)cnc2c(=O)[nH]1,survivor count,[3],10 of 10
CC(=N\O)/C(C)=N/O.CC(=N\O)/C(C)=N/O.[Ni],survivor count,"dose: 12.0 mg/kg/injection, schedule: Q01DX009 (ip), vehicle: saline with Tween-80",10 of 10
same,survivor count,[4],10 of 10
same,survivor count,"dose: 50.0 mg/kg/injection, schedule: Q01DX009 (ip), vehicle: saline with Tween-80",8 of 10
same,survivor count,"dose: 100.0 mg/kg/injection, schedule: Q01DX009 (ip), vehicle: saline with Tween-80",3 of 10
Cc1ccc[c]([Hg][Cl])c1N=Nc1ccccc1,survivor count,[5],6 of 10
same,survivor count,[4],0 of 10
CN(C)CCCNc1c2ccccc2nc2cccc([N+](=O)[O-])c12,T/C,"dose: 10.0 micrograms/kg/injection, schedule: Q01DX009 (ip), vehicle: saline","95, 96, 100 [9 of 10 alive] (2×), 103, 112, 113, 119 % of control"
same,T/C,"dose: 20.0 micrograms/kg/injection, schedule: Q01DX009 (ip), vehicle: saline","90, 94 [9 of 10 alive], 95, 96, 101, 108, 111, 137 % of control"
same,T/C,"dose: 40.0 micrograms/kg/injection, schedule: Q01DX009 (ip), vehicle: saline","90 [9 of 10 alive], 98, 99, 101, 101 [9 of 10 alive], 109, 110, 124 % of control"
same,T/C,[6],"90, 93, 96 (2×), 97, 100, 125 % of control"
same,survivor count,[6],9 of 10
same,T/C,[7],109 % of control
same,survivor count,[7],"8 of 10, 9 of 10, 10 of 10"
same,survivor count,"dose: 250.0 micrograms/kg/injection, schedule: Q01DX009 (ip), vehicle: saline",10 of 10
same,survivor count,"dose: 500.0 micrograms/kg/injection, schedule: Q01DX009 (ip), vehicle: saline",10 of 10
same,survivor count,"dose: 1000.0 micrograms/kg/injection, schedule: Q01DX009 (ip), vehicle: saline",10 of 10
COC(=O)C1CC(C)(C)N(C)C1(C)C (stereo not given),survivor count,[8],5 of 10
COc1cc2c3c(c4ccc(OC)c(OC)c4c2cc1OC)CN1CCC[C@@H]1C3,T/C,"dose: 16.0 mg/kg/injection, schedule: Q01DX009 (ip), vehicle: saline with Tween-80",128 % of control
same,survivor count,"dose: 32.0 mg/kg/injection, schedule: Q01DX009 (ip), vehicle: saline with Tween-80",6 of 6
same,survivor count,"dose: 64.0 mg/kg/injection, schedule: Q01DX009 (ip), vehicle: saline with Tween-80",4 of 6
Nc1c2c(nc3ccccc13)CCCC2,survivor count,[1],3 of 10
same,survivor count,[9],0 of 10
same,survivor count,[2],0 of 10
CC(C)(C)NC/C(=C\c1ccccc1)C(=O)c1ccccc1,survivor count,[10],7 of 10
same,survivor count,"dose: 50.0 mg/kg/injection, schedule: Q04DX003 (ip), vehicle: saline with Tween-80",9 of 10
same,survivor count,"dose: 100.0 mg/kg/injection, schedule: Q04DX003 (ip), vehicle: saline with Tween-80",5 of 10
O=C=Nc1ccc(Cc2ccc(N=C=O)cc2)cc1,T/C,[11],136 % of control
same,T/C,[8],136 % of control
C[CH2][Sn]([CH2]C)([CH2]C)[O]C(=O)CO,survivor count,"dose: 6.25 mg/kg/injection, schedule: Q01DX009 (ip), vehicle: saline",10 of 10
same,survivor count,"dose: 12.5 mg/kg/injection, schedule: Q01DX009 (ip), vehicle: saline",0 of 10
same,survivor count,[1],0 of 10
CNC(=S)N/N=C(\C=N\NC(=S)NC)c1ccc(C)cc1,survivor count,[3],10 of 10
C=C(C)C12OC3(c4ccccc4)OC1C1C4OC4(CO)C(O)C4(O)C(=O)C(C)=CC4C1(O3)C(C)C2OC(=O)c1ccccc1 (stereo not given),T/C,"dose: 0.8 mg/kg/injection, schedule: Q01DX009 (ip), vehicle: saline with Tween-80",126 % of control
CCCCCCCCCCCCCCCCP(=O)(OCCOCCCCCC)OCCOCCCCCC,survivor count,[2],9 of 10
CCCCCCCCSC1=C(Cl)C(=O)C(OC)=C(OC)C1=O,survivor count,"dose: 6.25 mg/kg/injection, schedule: Q01DX009 (ip), vehicle: saline with Tween-80",10 of 10
same,survivor count,[5],10 of 10
same,survivor count,[4],9 of 10
same,survivor count,"dose: 37.5 mg/kg/injection, schedule: Q01DX009 (ip), vehicle: saline with Tween-80",7 of 10
CCN(CC)CCCC(C)Nc1ccnc(/C=C/c2ccc(Cl)cc2)c1 (stereo not given),survivor count,[10],10 of 10
same,survivor count,"dose: 110.0 mg/kg/injection, schedule: Q04DX003 (ip), vehicle: saline",8 of 10
same,survivor count,"dose: 170.0 mg/kg/injection, schedule: Q04DX003 (ip), vehicle: saline",2 of 10
same,survivor count,"dose: 255.0 mg/kg/injection, schedule: Q04DX003 (ip), vehicle: saline",1 of 10
CCC[CH2][Sn]([CH2]CCC)([CH2]CCC)[O]C(=O)CC[S][Sn]([CH2]CCC)([CH2]CCC)[CH2]CCC,survivor count,"dose: 4.0 mg/kg/injection, schedule: Q01DX009 (ip), vehicle: saline with Tween-80",5 of 10
"CCC(C)C1NC(=O)C(NC(=O)c2c3nc4c(C(=O)NC5C(=O)NC(C(C)CC)C(=O)N6CCCC6C(=O)N(C)CC(=O)N(C)C(C(C)C)C(=O)OC5C)ccc(C)c4oc-3c(C)c(=O)c2N)C(C)OC(=O)C(C(C)C)N(C)C(=O)CN(C)C(=O)C2CCCN2C1=O (stereo not given) (I: TIP[Sar][NMeV] / II: TIP[Sar][NMeV]; ester I:1-I:C, II:1-II:C; linker I:N-II:N via Actinocin(1to9); configuration not given here)",survivor count,"dose: 1.6 mg/kg/injection, schedule: Q01DX001 (ip), vehicle: water",5 of 10
same,T/C,"dose: 50.0 micrograms/kg/injection, schedule: Q01DX009 (ip), vehicle: water",136 % of control
same,survivor count,"dose: 100.0 micrograms/kg/injection, schedule: Q01DX009 (ip), vehicle: water",10 of 10
same,T/C,"dose: 300.0 micrograms/kg/injection, schedule: Q04DX003 (ip), vehicle: water",125 % of control
same,survivor count,"dose: 600.0 micrograms/kg/injection, schedule: Q04DX003 (ip), vehicle: water",10 of 10
CCNC1=C(N2CC2)C(=O)C(NCC)=C(N2CC2)C1=O,T/C,"dose: 0.37 mg/kg/injection, schedule: Q01DX009 (ip), vehicle: saline",126 % of control
same,survivor count,"dose: 1.5 mg/kg/injection, schedule: Q01DX009 (ip), vehicle: saline",9 of 10 and 10 of 10
same,survivor count,"dose: 3.0 mg/kg/injection, schedule: Q01DX009 (ip), vehicle: saline",9 of 10
CC(C)NNC(=O)C(C)O (stereo not given),survivor count,[2],8 of 10
same,survivor count,"dose: 400.0 mg/kg/injection, schedule: Q01DX009 (ip), vehicle: saline",10 of 10
C[C@H]1C(=O)O[C@@H]2CCN3CC=C(COC(=O)[C@](C)(O)[C@@]1(C)O)[C@H]23,T/C,[9],128 % of control
same,T/C,[2],133 % of control
same,T/C,"dose: 200.0 mg/kg/injection, schedule: Q01DX009 (ip), vehicle: saline",145 % of control
CC1(S)CCC2CC1C2(C)C (stereo not given),survivor count,[10],10 of 10
same,survivor count,[11],6 of 6
same,survivor count,[8],5 of 6
CC1(C)SC(C(NC(=O)Cc2ccccc2)C(=O)O)NC1C(=O)O (stereo not given),survivor count,"dose: 400.0 mg/kg/injection, schedule: Q01DX009 (ip), vehicle: saline with Tween-80",10 of 10
O=S1(=O)CC(Cl)C(Cl)C1 (stereo not given),survivor count,"dose: 6.25 mg/kg/injection, schedule: Q01DX009 (ip), vehicle: Klucel (hydroxypropylcellulose) (HPC)",10 of 10
same,survivor count,"dose: 25.0 mg/kg/injection, schedule: Q01DX009 (ip), vehicle: Klucel (hydroxypropylcellulose) (HPC)",7 of 10
CC(=O)CC(C)=O.CC(=O)CC(C)=O.CC(=O)CC(C)=O.[Cr],survivor count,[11],10 of 10
same,survivor count,[8],10 of 10
same,survivor count,[3],10 of 10
CC(=N\O)/C(C)=N/O.CC(=N\O)/C(C)=N/O.[Fe].c1c[nH]cn1.c1c[nH]cn1,survivor count,[3],7 of 10

# — PubChem BioAssay AID192 (DTP/NCI, 2004)
